Results: the supplement of paper PMC3334620
The full ranking holds about 33,000 sequences; the median of “E-score (-0.5 to 0.5)” is about -0.0014, and the highest 2% start at about 0.25. The list shows a part of the results.

Molecular target: T1, Cad1 (UniProt P24813)
T1 sequence: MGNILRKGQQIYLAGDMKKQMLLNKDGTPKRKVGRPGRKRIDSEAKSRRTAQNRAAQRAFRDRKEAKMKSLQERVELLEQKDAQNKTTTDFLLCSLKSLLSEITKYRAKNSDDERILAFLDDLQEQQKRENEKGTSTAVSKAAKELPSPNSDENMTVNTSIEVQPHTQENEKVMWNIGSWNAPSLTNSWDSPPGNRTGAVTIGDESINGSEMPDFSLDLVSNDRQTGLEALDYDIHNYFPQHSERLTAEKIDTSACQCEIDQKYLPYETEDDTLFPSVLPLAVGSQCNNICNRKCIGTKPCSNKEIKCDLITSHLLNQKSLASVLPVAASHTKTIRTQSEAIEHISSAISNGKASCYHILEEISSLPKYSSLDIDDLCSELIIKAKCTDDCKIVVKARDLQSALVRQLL
Experiment: PBM E-score (8-mer binding enrichment) (E-score (-0.5 to 0.5)); higher = stronger / more preferred TF binding
Conditions: protein concentration: 100 nM; construct: GST-full length
Outline: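 Using PURExpress in vitro transcription/translation, GST-tagged yeast transcription factors were made in full-length or DNA-binding-domain form. These were applied at about 100-200 nM to double-stranded universal all-10-mer Agilent arrays, and bound protein was detected with fluorescent anti-GST. Scans were normalised with masliner before the Universal PBM Analysis Suite assigned E-scores to ungapped eight-base words pooled with their reverse complements.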

| Sequence | PBM E-score |
| --- | --- |
| GCTTATTA | 0.369 |
| TCGCCTAA | 0.0267 |
| CCTAACAG | -0.023 |
| GACGGGCA | -0.122 |
| CGCAGTAC | -0.0866 |
| AACTCGAA | 0.0555 |
| AGCTCATC | -0.208 |
| GATGCAAC | -0.15 |
| CGTTCAAC | 0.202 |
| CTTGCTGC | -0.232 |
| ACACGAAG | 0.0492 |
| AGGAAAGG | -0.323 |
| ACCGTGAG | -0.158 |
| CTAGATCA | -0.11 |
| TTAAGGAA | 0.0663 |
| GTACACCA | -0.0543 |
| CAGACTCA | -0.0165 |
| ACTCGCCG | 0.023 |
| CATCCCGC | -0.0517 |
| GGACGATA | 0.0381 |
| CGTCGCGC | 0.0379 |
| ATACGAGG | -0.0819 |
| AGCCGCGA | 0.0704 |
| ATGAGCGC | 0.232 |
| AAAGATTA | 0.152 |

| Sequence | PBM E-score |
| --- | --- |
| CGCTCTTC | -0.209 |
| GATTCCGA | 0.0654 |
| AAACTAGT | 0.0646 |
| GGACAGAA | 0.0717 |
| CCATTTGA | 0.0783 |
| CGTGCTAA | 0.0651 |
| AATCTTGT | 0.122 |
| GTCGCAGA | 0.141 |
| ACCCTCCC | 0.133 |
| GATCGACA | 0.0809 |
| ACGTCAAC | -0.0674 |
| TACTCCAA | -0.122 |
| AACGAAGG | -0.311 |
| TCTTCGCA | 0.193 |
| CTTCAGTC | -0.127 |
| GATCAGGC | 0.00244 |
| ATTGAGTG | 0.0114 |
| AGTCTAGA | -0.0977 |
| TCCAAGGA | -0.19 |
| ATCGCAAA | 0.13 |
| GAGCACTA | -0.099 |
| GCGCTGGA | 0.0157 |
| TATTGCCA | -0.0673 |
| ATTCGCTC | 0.117 |
| CGAAGTCA | 0.0241 |

Looked up above.
PBM E-score, ATTGAGTG reads 0.0114
PBM E-score, GATCGACA reads 0.0809
PBM E-score, CGTGCTAA reads 0.0651
PBM E-score, TATTGCCA reads -0.0673
PBM E-score, TACTCCAA reads -0.122
PBM E-score, GCGCTGGA reads 0.0157
PBM E-score, GTCGCAGA reads 0.141

Continued:

| Sequence | PBM E-score |
| --- | --- |
| AAGATGGA | 0.00363 |
| GCTGCCCA | -0.0743 |
| AGCGTTGG | 0.056 |
| GCTAATCA | 0.215 |
| ACAGCTCC | -0.0138 |
| GATGTTCC | 0.00466 |
| ATTCGTAC | 0.173 |
| AAGAGATA | -0.00559 |
| TACAATCA | 0.0688 |
| AAATGTAG | 0.00878 |
| CAGAGGTA | -0.015 |
| GATGCCGC | -0.144 |
| GGATCCAC | 0.0158 |
| GGGCTCAA | -0.18 |
| AATTCGCA | 0.0912 |
| CGAGCTCG | 0.227 |
| GGCGTAGA | -0.156 |
| CTAACACC | -0.0338 |
| CGCGTAGC | -0.0194 |
| CCCTACGG | -0.247 |
| GATCACGA | 0.0523 |
| CTAGAATA | 0.11 |
| ATACTCGC | 0.188 |
| GACACTAC | -0.00121 |
| CCTTCAGC | 0.0456 |

| Sequence | PBM E-score |
| --- | --- |
| CCGCGGAG | -0.00921 |
| CAGACATA | 0.0507 |
| ATACATCA | 0.139 |
| ACTAGCGA | -0.0405 |
| AAACGGCA | -0.131 |
| GTCTTCAA | -0.0567 |
| GGGGAACC | -0.258 |
| TGGTCACA | 0.0346 |
| CTGACCAA | 0.276 |
| AGCAACCT | -0.149 |
| GCACCCCC | -0.332 |
| ACCTGACG | -0.173 |
| ACCGGGTG | -0.00614 |
| ACCGTGAT | 0.0584 |
| ACCACGTC | -0.0266 |
| CTCTCGTA | -0.149 |
| AGCAGTAC | -0.00081 |
| GCAATTCC | 0.0267 |
| ACCACATC | -0.121 |
| ATGTTGAG | 0.0493 |
| AACTTTGG | -0.113 |
| AACAGGTG | -0.18 |
| CCTCAGAC | -0.12 |
| ACAATACC | 0.154 |
| GGGGTACA | -0.168 |

| Sequence | PBM E-score |
| --- | --- |
| CCAAATCG | 0.0163 |
| GCAATGGA | -0.0124 |
| ACTACCGG | -0.231 |
| CTGGGGCC | -0.291 |
| AAACAAGT | -0.06 |
| AAGTGGCA | -0.0104 |
| GATGCCCC | -0.318 |
| AGCCCCGC | -0.0779 |
| CGCTAATA | 0.118 |
| GTTAAACA | 0.166 |
| CTGCCTCA | -0.232 |
| GATTAGCA | 0.217 |
| ATTGACCA | -0.0558 |
| TCGCAACA | 0.012 |
| ACTGCTTA | 0.132 |
| CACCATTA | -0.025 |
| ACCACAGA | -0.0731 |
| AAATCGTC | 0.0296 |
| AGAGCCAG | -0.239 |
| CATCTCGG | 0.0454 |
| ATATGACG | 0.0364 |
| CTAAAGAA | 0.122 |
| ACCGCGGG | 0.186 |
| AACGCTTC | -0.0949 |
| AACCACCA | -0.0697 |

| Sequence | PBM E-score |
| --- | --- |
| CTCTAGAC | -0.168 |
| ACATACTA | 0.111 |
| ATGAAAAG | 0.0321 |
| AGCCGCAT | -0.0263 |
| ACGTCCCT | 0.0045 |
| ACGATAAA | 0.0169 |
| ATATCTGC | 0.0177 |
| ACTGCCCG | -0.0199 |
| CTCAAACA | 0.0329 |
| TAGGCCCA | -0.0715 |
| AGAGGCTG | -0.39 |
| AAAGTAGG | -0.00063 |
| GTTGACTA | 0.0212 |
| ACATGTAA | 0.196 |
| AACTCTCT | 0.0449 |
| GCCTTGGA | 0.0419 |
| TAAATTAA | 0.131 |
| ACGACAAC | 0.187 |
| ATGTGAAC | 0.0102 |
| AGCGCTTA | 0.336 |
| ATATTAAT | 0.368 |
| ATCTAGCA | 0.0899 |
| GGCGCTTA | -0.0696 |
| ATTGCACC | -0.0984 |
| CCTTGATA | 0.12 |

| Sequence | PBM E-score |
| --- | --- |
| AAGTCAAA | -0.0173 |
| TGAGGACA | 0.123 |
| AAGCACGG | 0.0126 |
| GCTCGCAC | 0.141 |
| CCTACAGC | 0.0508 |
| CGGCCGGA | -0.0342 |
| TCTAACCA | 0.0533 |
| CCGCTTAG | -0.00568 |
| CCCACAGG | -0.311 |
| AAACATTA | 0.0245 |
| AACGGCAC | -0.0786 |
| CTCCGAAG | -0.0402 |
| CAGAAATA | 0.12 |
| CTACAGAA | 0.0272 |
| ATCATCGC | 0.0216 |
| CCTTTGTC | 0.0499 |
| GAGCTCGA | 0.16 |
| ATGCCCTC | -0.0803 |
| TAGGCACA | -0.0581 |
| GTGATTTA | 0.153 |
| TCCGGGAA | 0.166 |
| CAGAGATC | -0.0207 |
